Assay [1] concerns the target SEC61B (human (endogenous in HeLa)) (UniProt P60468). The assay can be described thus: proximity ligation; Duolink PLA on fixed, permeabilised cells with primary antibodies to the two proteins.
A further assay concerns the target T7-NBAS (human) (UniProt A2RRP1). The assay can be described thus: co-IP; tagged UPF1 (wild type or mutant) cotransfected with T7-NBAS, HeLa cells, in the presence or absence of RNases; source of UPF2 not stated.

Amino acid sequences for entries named in this document (tags omitted).
UniProt P60468: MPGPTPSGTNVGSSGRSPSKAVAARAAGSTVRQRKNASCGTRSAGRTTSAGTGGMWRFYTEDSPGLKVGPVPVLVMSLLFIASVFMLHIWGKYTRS
UniProt A2RRP1: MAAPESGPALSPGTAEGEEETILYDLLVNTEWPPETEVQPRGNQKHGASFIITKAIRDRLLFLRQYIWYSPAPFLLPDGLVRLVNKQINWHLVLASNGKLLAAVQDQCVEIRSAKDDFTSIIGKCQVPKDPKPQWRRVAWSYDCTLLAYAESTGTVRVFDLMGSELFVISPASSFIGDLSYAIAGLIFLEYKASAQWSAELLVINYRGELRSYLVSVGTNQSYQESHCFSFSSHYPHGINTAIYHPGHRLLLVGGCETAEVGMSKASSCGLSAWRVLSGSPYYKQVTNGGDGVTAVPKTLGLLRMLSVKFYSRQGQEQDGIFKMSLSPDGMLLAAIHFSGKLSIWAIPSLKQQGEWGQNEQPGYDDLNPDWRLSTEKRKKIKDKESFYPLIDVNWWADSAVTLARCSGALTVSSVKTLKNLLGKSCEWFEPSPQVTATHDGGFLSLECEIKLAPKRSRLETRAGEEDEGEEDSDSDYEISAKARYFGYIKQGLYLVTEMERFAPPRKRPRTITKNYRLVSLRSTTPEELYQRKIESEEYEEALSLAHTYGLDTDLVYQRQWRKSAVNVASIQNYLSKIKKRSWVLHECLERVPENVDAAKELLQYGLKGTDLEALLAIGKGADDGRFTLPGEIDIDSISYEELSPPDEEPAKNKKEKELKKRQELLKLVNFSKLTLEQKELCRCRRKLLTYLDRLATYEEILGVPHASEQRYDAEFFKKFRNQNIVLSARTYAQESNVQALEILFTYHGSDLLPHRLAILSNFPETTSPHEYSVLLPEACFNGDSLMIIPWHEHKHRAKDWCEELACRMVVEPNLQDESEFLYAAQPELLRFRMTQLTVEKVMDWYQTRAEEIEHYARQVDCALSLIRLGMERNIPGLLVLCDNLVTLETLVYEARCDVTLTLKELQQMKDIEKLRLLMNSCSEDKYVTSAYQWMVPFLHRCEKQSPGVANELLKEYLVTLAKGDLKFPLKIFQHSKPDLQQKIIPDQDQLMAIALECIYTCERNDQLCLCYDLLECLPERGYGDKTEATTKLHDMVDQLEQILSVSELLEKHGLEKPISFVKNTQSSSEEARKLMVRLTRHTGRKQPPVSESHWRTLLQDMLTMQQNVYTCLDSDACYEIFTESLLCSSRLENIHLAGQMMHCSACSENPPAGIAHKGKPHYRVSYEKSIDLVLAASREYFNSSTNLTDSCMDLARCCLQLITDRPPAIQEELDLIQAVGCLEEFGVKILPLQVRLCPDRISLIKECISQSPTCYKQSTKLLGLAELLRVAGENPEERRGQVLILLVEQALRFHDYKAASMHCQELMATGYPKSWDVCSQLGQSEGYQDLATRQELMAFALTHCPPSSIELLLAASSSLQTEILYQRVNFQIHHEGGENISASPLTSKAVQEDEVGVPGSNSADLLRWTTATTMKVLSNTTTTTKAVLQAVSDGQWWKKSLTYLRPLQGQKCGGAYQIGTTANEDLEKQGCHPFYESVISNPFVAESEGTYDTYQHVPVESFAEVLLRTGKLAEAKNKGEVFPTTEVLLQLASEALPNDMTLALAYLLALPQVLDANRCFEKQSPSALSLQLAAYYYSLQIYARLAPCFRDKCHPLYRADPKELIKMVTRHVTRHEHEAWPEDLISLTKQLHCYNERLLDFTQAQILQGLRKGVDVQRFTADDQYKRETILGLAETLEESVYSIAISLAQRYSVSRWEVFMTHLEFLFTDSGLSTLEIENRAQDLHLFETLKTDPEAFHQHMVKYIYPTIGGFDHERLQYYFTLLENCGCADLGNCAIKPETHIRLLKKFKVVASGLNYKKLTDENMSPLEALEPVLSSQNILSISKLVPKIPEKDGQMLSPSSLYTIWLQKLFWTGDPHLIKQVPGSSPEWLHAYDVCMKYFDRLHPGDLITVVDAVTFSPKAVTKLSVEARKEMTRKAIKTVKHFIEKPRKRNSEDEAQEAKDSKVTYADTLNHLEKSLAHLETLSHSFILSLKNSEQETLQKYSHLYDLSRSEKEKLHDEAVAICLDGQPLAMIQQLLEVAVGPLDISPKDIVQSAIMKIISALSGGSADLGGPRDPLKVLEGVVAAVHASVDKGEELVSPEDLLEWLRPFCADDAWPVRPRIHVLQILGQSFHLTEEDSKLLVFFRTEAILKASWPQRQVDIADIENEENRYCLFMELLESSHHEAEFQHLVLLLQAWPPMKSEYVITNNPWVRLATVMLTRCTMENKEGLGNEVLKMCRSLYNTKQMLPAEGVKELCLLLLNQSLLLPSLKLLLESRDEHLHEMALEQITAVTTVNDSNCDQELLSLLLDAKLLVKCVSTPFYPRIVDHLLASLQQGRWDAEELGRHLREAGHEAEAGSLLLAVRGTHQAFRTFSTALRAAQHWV

No constants are given. Whether binding was seen depends on the method and setting. Binding seen in cells or lysates may run through a third protein. Some binding calls cover weakened binding; strength is not graded here. For some of these results: Tags and fused reporters may be left off the sequences shown.

As for “endogenous NBAS tagged with an eGFP/3xFlag tag at its N terminus (from UniProt A2RRP1 1-2371)”, the binding result in assay [1] was “binds”.

B1: Flag-tagged UPF1 (protein, UniProt Q92900-2 1-1118)
chain: MSVEAYGPSSQTLTFLDTEEAELLGADTQGSEFEFTDFTLPSQTQTPPGGPGGPGGGGAGGPGGAGAGAAAGQLDAQVGPEGILQNGAVDDSVAKTSQLLAELNFEEDEEDTYYTKDLPIHACSYCGIHDPACVVYCNTSKKWFCNGRGNTSGSHIVNHLVRAKCKEVTLHKDGPLGETVLECYNCGCRNVFLLGFIPAKADSVVVLLCRQPCASQSSLKDINWDSSQWQPLIQDRCFLSWLVKIPSEQEQLRARQITAQQINKLEELWKENPSATLEDLEKPGVDEEPQHVLLRYEDAYQYQNIFGPLVKLEADYDKKLKESQTQDNITVRWDLGLNKKRIAYFTLPKTDSDMRLMQGDEICLRYKGDLAPLWKGIGHVIKVPDNYGDEIAIELRSSVGAPVEVTHNFQVDFVWKSTSFDRMQSALKTFAVDETSVSGYIYHKLLGHEVEDVIIKCQLPKRFTAQGLPDLNHSQVYAVKTVLQRPLSLIQGPPGTGKTVTSATIVYHLARQGNGPVLVCAPSNIAVDQLTEKIHQTGLKVVRLCAKSREAIDSPVSFLALHNQIRNMDSMPELQKLQQLKDETGELSSADEKRYRALKRTAERELLMNADVICCTCVGAGDPRLAKMQFRSILIDESTQATEPECMVPVVLGAKQLILVGDHCQLGPVVMCKKAAKAGLSQSLFERLVVLGIRPIRLQVQYRMHPALSAFPSNIFYEGSLQNGVTAADRVKKGFDFQWPQPDKPMFFYVTQGQEEIASSGTSYLNRTEAANVEKITTKLLKAGAKPDQIGIITPYEGQRSYLVQYMQFSGSLHTKLYQEVEIASVDAFQGREKDFIILSCVRANEHQGIGFLNDPRRLNVALTRARYGVIIVGNPKALSKQPLWNHLLNYYKEQKVLVEGPLNNLRESLMQFSKPRKLVNTINPGARFMTTAMYDAREAIIPGSVYDRSSQGRPSSMYFQTHDQIGMISAGPSHVAAMNIPIPFNLVMPPMPPPGYFGQANGPAAGRGTPKGKTGRGGRQKNRFGLPGPSQTNLPNSQASQDVASQPFSQGALTQGYISMSQPSQMSQPGLSQPELSQDSYLGDEFKSQIDVALSQDSTYQGERAYQHGGVTGLSQY
Consider B1, for which the binding entry in the assay with T7-NBAS (human) is listed as “binds”.

B2: UPF1 C126S (protein, UniProt Q92900-2 1-1118)
chain: MSVEAYGPSSQTLTFLDTEEAELLGADTQGSEFEFTDFTLPSQTQTPPGGPGGPGGGGAGGPGGAGAGAAAGQLDAQVGPEGILQNGAVDDSVAKTSQLLAELNFEEDEEDTYYTKDLPIHACSYSGIHDPACVVYCNTSKKWFCNGRGNTSGSHIVNHLVRAKCKEVTLHKDGPLGETVLECYNCGCRNVFLLGFIPAKADSVVVLLCRQPCASQSSLKDINWDSSQWQPLIQDRCFLSWLVKIPSEQEQLRARQITAQQINKLEELWKENPSATLEDLEKPGVDEEPQHVLLRYEDAYQYQNIFGPLVKLEADYDKKLKESQTQDNITVRWDLGLNKKRIAYFTLPKTDSDMRLMQGDEICLRYKGDLAPLWKGIGHVIKVPDNYGDEIAIELRSSVGAPVEVTHNFQVDFVWKSTSFDRMQSALKTFAVDETSVSGYIYHKLLGHEVEDVIIKCQLPKRFTAQGLPDLNHSQVYAVKTVLQRPLSLIQGPPGTGKTVTSATIVYHLARQGNGPVLVCAPSNIAVDQLTEKIHQTGLKVVRLCAKSREAIDSPVSFLALHNQIRNMDSMPELQKLQQLKDETGELSSADEKRYRALKRTAERELLMNADVICCTCVGAGDPRLAKMQFRSILIDESTQATEPECMVPVVLGAKQLILVGDHCQLGPVVMCKKAAKAGLSQSLFERLVVLGIRPIRLQVQYRMHPALSAFPSNIFYEGSLQNGVTAADRVKKGFDFQWPQPDKPMFFYVTQGQEEIASSGTSYLNRTEAANVEKITTKLLKAGAKPDQIGIITPYEGQRSYLVQYMQFSGSLHTKLYQEVEIASVDAFQGREKDFIILSCVRANEHQGIGFLNDPRRLNVALTRARYGVIIVGNPKALSKQPLWNHLLNYYKEQKVLVEGPLNNLRESLMQFSKPRKLVNTINPGARFMTTAMYDAREAIIPGSVYDRSSQGRPSSMYFQTHDQIGMISAGPSHVAAMNIPIPFNLVMPPMPPPGYFGQANGPAAGRGTPKGKTGRGGRQKNRFGLPGPSQTNLPNSQASQDVASQPFSQGALTQGYISMSQPSQMSQPGLSQPELSQDSYLGDEFKSQIDVALSQDSTYQGERAYQHGGVTGLSQY
With B2, the binding entry with T7-NBAS (human) is listed as “binds”.

B3: UPF1 K498A (protein, UniProt Q92900-2 1-1118)
chain: MSVEAYGPSSQTLTFLDTEEAELLGADTQGSEFEFTDFTLPSQTQTPPGGPGGPGGGGAGGPGGAGAGAAAGQLDAQVGPEGILQNGAVDDSVAKTSQLLAELNFEEDEEDTYYTKDLPIHACSYCGIHDPACVVYCNTSKKWFCNGRGNTSGSHIVNHLVRAKCKEVTLHKDGPLGETVLECYNCGCRNVFLLGFIPAKADSVVVLLCRQPCASQSSLKDINWDSSQWQPLIQDRCFLSWLVKIPSEQEQLRARQITAQQINKLEELWKENPSATLEDLEKPGVDEEPQHVLLRYEDAYQYQNIFGPLVKLEADYDKKLKESQTQDNITVRWDLGLNKKRIAYFTLPKTDSDMRLMQGDEICLRYKGDLAPLWKGIGHVIKVPDNYGDEIAIELRSSVGAPVEVTHNFQVDFVWKSTSFDRMQSALKTFAVDETSVSGYIYHKLLGHEVEDVIIKCQLPKRFTAQGLPDLNHSQVYAVKTVLQRPLSLIQGPPGTGATVTSATIVYHLARQGNGPVLVCAPSNIAVDQLTEKIHQTGLKVVRLCAKSREAIDSPVSFLALHNQIRNMDSMPELQKLQQLKDETGELSSADEKRYRALKRTAERELLMNADVICCTCVGAGDPRLAKMQFRSILIDESTQATEPECMVPVVLGAKQLILVGDHCQLGPVVMCKKAAKAGLSQSLFERLVVLGIRPIRLQVQYRMHPALSAFPSNIFYEGSLQNGVTAADRVKKGFDFQWPQPDKPMFFYVTQGQEEIASSGTSYLNRTEAANVEKITTKLLKAGAKPDQIGIITPYEGQRSYLVQYMQFSGSLHTKLYQEVEIASVDAFQGREKDFIILSCVRANEHQGIGFLNDPRRLNVALTRARYGVIIVGNPKALSKQPLWNHLLNYYKEQKVLVEGPLNNLRESLMQFSKPRKLVNTINPGARFMTTAMYDAREAIIPGSVYDRSSQGRPSSMYFQTHDQIGMISAGPSHVAAMNIPIPFNLVMPPMPPPGYFGQANGPAAGRGTPKGKTGRGGRQKNRFGLPGPSQTNLPNSQASQDVASQPFSQGALTQGYISMSQPSQMSQPGLSQPELSQDSYLGDEFKSQIDVALSQDSTYQGERAYQHGGVTGLSQY
Turning to B3, the binding entry in the assay with T7-NBAS (human) is on record as “no binding”.
